{
  "source": "patent US11278549B2",
  "about": "“Method of treating obesity” (McMaster University, priority 2013, dated 2022)",
  "system": "HFD-fed C57Bl6 mice",
  "assay": "Daily LP533401 treatment of HFD-fed C57Bl6 mice (prevention of obesity)",
  "assay_type": "in vivo",
  "conditions": "Tph1 inhibitor 25 mg/kg daily i.p., values ± SEM, n = 7-8",
  "text": "Animals. All experiments were approved by the McMaster University animal ethics committee and conducted under the Canadian guidelines for animal research. Tph1^−/− mice on C57BL/6 background were originally produced by gene mutation as described by Côté et al. (Proc Natl Acad Sci USA 100, 13525-13530 (2003)). Heterozygous (Tph1^+/−) mice were interbred to generate Tph1^−/− and Tph1^+/+ littermates. Starting at 8 weeks of age, male Tph1^−/− and Tph1^+/+ mice received either a chow (17% kcal fat; Diet 8640, Harlan Teklad, Madison, Wis.) or high-fat diet (HFD, 45% kcal fat, D12451, Research Diets; New Brunswick, N.J.) and water ad libitum for 12 weeks. […]\nMetabolic monitoring was performed in a Comprehensive Lab Animal Monitoring System (CLAMS, Columbus Instruments, OH, USA) as previously described (Sachithanandan, N., et al. Hepatology 52, 1632-1642 (2010); O'Neill, H. M., et al. Proc Natl Acad Sci 108, 16092-16097 (2011)). […] For serum insulin and cytokine measurements, fasting and fed blood samples were collected by retro-orbital bleed between weeks 16-18 using a non-heparinized capillary tube and insulin, adiponectin, leptin were measured as described (Watt, M. J., et al. Nature medicine 12, 541-548 (2006)). Serum cytokines (MCP-1, TNFα, and IL-6) were measured using a multiplexed bead-based immunoassay (BD Biosciences, San Jose, Calif., USA) following the manufacturer's instructions. […]",
  "data": [
    {"smiles": "Nc1nc(OC(c2ccc(-c3cccc(F)c3)cc2)C(F)(F)F)cc(-c2ccc(C[C@H](N)C(=O)O)cc2)n1", "note": "(stereo partly drawn) [LP533401, (2S)-2-amino-3-(4-(2-amino-6-(2,2,2-trifluoro-1-(3′-fluoro-[1,1′-biphenyl]-4-yl)ethoxy)pyrimidin-4-yl)phenyl)propanoic acid]", "values": [
      {"measurement": "Tissue weight, Heart", "result": "153 ± 10.6", "unit": "mg"},
      {"measurement": "Tissue weight, Spleen", "result": "147 ± 23.3", "unit": "mg"}
    ]}
  ]
}
